Patent publication US20220397566A1, “GAMMA-SECRETASE STABILIZING COMPOUND SCREENING ASSAY” (VIB VZW, priority 2019, published 2022)
Some results were stated once for a whole list of compounds, not compound by compound.

Target: T1, PSEN1/g-secretase complex (Homo sapiens, UniProt P49768)
T1 construct: expressed in transfected cells
Assay: Relocation of GFP-PSEN1/g-secretase to LAMP1-positive late endosomes (confocal immunofluorescence)
Type: cell-based, mouse
Details: 1 μM, FIG. 8
Description: We now questioned whether g-secretase inhibitors would affect subcellular distribution of g-secretase complexes as well. We made use of mouse embryonic fibroblasts (MEFs) in which both PSEN1 an PSEN2 are knocked-out (dKO), rescued with either EGFP-PSEN1 or EGFP-PSEN2 (FIG. 1A). […] The dKO MEFs were then incubated overnight with N—[N-(3,5-difluorophenacetyl)-L-alanyl]-S-phenylglycine t-butyl ester (DAPT). DAPT is a non-transition state analogue (TSA) g-secretase inhibitor that is widely used (Dovey et al 2001 J Neurochem 76).
All culture media and sera are from ThermoFisher Scientific. Mouse embryonic fibroblasts (MEFs), PSEN1 knock-out (1 ko), PSEN1 and PSEN2 double knock-out (dKO, Herreman et al 2000 Nat Cell Biol 2), rescued 1 ko and dKO cell lines cells were routinely grown in Dulbecco's modified Eagle's medium (DMEM/F12) supplemented with 10% fetal calf serum (FCS). All cell lines were maintained in a humidified chamber with 5% CO2 at 37° C. […]
Cells were plated on glass coverslips, transfected 24 h later and processed for indirect immunolabeling the next day (Sannerud et al 2011 Proc Natl Acad Sci USA 108). […] ImageJ software with the plugin JACoP (Bolte and Cordelieres 2006 J Microsc 224) was used for signal overlap quantification (Mander's coefficient). Images were acquired with identical settings and regions of interest (ROI) covering whole cells were used for quantification.

Compound | translocation of the PSEN1/g-secretase complex to the late endosomes (Rel MFI)
O=C(O)C1(c2ccc(-c3ccc(Cl)c(Cl)c3)c(F)c2)CC1 [C9, 1-(3′,4′-Dichloro-2-fluoro[1,1′-biphenyl]-4-yl)-cyclopropanecarboxylic acid] | none
CSc1ccc(/C=C2/C(C)=C(CC(=O)O)c3cc(F)ccc32)cc1 [C7, Sulindac sulfide] | none
